Results reported in paper PMC3044755.
These are yes or no findings as the source states them, for the method shown. Binding seen in cells or lysates may run through a third protein. Binding can be weak; no strength is given.

Sequences of proteins named here, by UniProt entry; tags and fusion partners are left off. A change or cut given only in a name is not applied to a line headed by its entry.
UniProt Q8C6B2: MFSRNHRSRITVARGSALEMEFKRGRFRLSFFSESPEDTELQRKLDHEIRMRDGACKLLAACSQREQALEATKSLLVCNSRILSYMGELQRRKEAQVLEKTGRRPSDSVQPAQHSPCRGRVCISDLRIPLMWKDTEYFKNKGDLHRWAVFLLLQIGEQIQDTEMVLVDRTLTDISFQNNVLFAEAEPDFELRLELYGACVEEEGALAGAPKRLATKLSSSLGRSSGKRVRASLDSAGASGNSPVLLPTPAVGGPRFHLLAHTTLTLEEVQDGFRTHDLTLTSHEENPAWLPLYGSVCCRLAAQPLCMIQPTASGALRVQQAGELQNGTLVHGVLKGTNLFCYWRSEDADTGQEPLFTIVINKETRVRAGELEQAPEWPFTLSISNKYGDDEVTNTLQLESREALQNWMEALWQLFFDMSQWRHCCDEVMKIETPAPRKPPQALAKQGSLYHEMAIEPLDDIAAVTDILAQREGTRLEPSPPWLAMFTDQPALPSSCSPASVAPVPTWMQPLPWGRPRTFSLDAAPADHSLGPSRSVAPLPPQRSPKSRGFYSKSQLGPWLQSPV
UniProt P61586: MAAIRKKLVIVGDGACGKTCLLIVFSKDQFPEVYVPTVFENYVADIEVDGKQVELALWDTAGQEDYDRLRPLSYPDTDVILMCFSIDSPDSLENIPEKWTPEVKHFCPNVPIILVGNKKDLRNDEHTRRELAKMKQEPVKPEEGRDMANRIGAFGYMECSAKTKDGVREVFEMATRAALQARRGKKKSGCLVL

Target: GST-tagged Rhotekin Rho-binding domain (RBD) (UniProt Q8C6B2)
Assay: pull-down; 30-60 ug purified GST-RBD on glutathione-sepharose beads rotated 30 min at 4°C with nuclear or PNS fractions of HEK293 cells in 50 mM Tris pH 7.6, 500 mM NaCl, 1% Triton X-100, 0.1% SDS, 0.5% deoxycholate, 10 mM MgCl2; blotted for RhoA; cells untreated, irradiated (10 Gy), myc-Net1 overexpression or Net1 siRNA; only the target purified

binding: binds
Substance: RhoA, endogenous (GTP-bound active form) (from UniProt P61586 1-193)
